Test [1] concerns the target T1, mRFP-tagged VLGR1_CTF (human) (UniProt Q8WXG9).
T1 sequence: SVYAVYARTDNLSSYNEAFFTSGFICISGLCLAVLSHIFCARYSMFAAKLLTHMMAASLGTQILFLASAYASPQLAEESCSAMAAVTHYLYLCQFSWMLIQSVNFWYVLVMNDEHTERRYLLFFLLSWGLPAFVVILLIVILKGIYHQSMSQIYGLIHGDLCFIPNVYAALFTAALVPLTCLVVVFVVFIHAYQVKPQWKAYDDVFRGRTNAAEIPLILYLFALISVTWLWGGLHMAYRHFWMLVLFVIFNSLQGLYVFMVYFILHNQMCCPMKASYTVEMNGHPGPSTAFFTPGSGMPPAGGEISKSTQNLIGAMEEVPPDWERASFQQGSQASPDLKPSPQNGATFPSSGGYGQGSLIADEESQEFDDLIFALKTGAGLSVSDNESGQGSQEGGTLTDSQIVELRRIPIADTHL
As to the kind of experiment: co-IP; RFP-Trap agarose beads; mRFP-tagged bait expressed 24 h in HEK293T; Triton X-100 lysis buffer (50 mM Tris-HCl pH 7.5, 150 mM NaCl, 0.5% Triton X-100); 2 h at 4 °C; endogenous preys detected by western blot.

By UniProt entry, the sequences of proteins in these tests, tags left out. Where a name states a change or a piece, a line headed by the entry shows the natural chain unless it says otherwise.
UniProt Q99720: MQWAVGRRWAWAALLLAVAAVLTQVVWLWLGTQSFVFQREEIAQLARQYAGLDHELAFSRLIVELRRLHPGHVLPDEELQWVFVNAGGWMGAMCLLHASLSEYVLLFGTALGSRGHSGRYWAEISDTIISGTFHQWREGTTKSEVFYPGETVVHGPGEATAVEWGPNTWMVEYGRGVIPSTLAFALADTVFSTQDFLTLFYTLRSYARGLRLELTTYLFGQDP
UniProt Q15388: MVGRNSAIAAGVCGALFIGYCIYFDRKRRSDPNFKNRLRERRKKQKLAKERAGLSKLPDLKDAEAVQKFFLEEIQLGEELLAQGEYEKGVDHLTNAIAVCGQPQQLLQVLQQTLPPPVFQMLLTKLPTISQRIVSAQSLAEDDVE

The target in test [2] is very large G protein-coupled receptor 1 (VLGR1), endogenous (human (endogenous in HEK293T and HeLa)) (UniProt Q8WXG9). Put plainly: proximity ligation; in situ PLA in HeLa cells (Figure S3).
Test [3] has as its target T2, HA-tagged VLGR1_CTF (human) (UniProt Q8WXG9).
T2 sequence: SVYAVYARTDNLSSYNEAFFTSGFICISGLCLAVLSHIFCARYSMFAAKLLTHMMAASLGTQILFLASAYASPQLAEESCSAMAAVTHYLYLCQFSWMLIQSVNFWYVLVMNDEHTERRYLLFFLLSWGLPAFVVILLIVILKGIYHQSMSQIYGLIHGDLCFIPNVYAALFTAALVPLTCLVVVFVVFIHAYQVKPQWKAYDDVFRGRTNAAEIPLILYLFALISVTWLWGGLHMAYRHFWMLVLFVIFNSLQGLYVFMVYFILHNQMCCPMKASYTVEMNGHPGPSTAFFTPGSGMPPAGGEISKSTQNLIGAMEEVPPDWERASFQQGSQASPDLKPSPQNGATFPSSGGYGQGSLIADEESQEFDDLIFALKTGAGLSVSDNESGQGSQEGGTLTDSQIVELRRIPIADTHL
Put plainly: proximity ligation; in situ PLA (Duolink In Situ Red, mouse/rabbit) in HEK293T cells, untransfected (endogenous VLGR1) or transfected with VLGR1_CTF-HA; signal at proximity under 40 nm.

In test [4] the target is very large G protein-coupled receptor 1 (VLGR1), endogenous (human (endogenous in HEK293T and HeLa)) (UniProt Q8WXG9). Described as above.
The next test concerns the target Myc-tagged S1R (UniProt Q99720). Put plainly: co-IP; Myc-Trap agarose beads; S1R-Myc and VLGR1_CTF-mRFP co-expressed in HEK293T; Triton X-100 lysis buffer; 2 h at 4 °C; western blot. For orientation: In western blotting, separated proteins are transferred to a membrane and probed.

Three molecules from publication PMC9496679 can be followed below.

No constants are given. Whether binding was seen depends on the method and setting. In cells and extracts the contact can be indirect. Some results given as binding are weak or reduced against the parent protein; the word gives no strength. For part of these data: Sequences can lack the tags named with a protein.

In the case of “mitochondrial import receptor subunit TOM20, endogenous (from UniProt Q15388 1-145)”, the binding result in test [1] is given as “binds”.
Take “sigma-1 receptor (S1R), endogenous (from UniProt Q99720 1-223)”: the binding result in test [2], in test [3], in test [4] and in test [1] was “binds” throughout.

B1: mRFP-tagged VLGR1_CTF (domain or fragment, UniProt Q8WXG9-1 5891-6306)
chain: SVYAVYARTDNLSSYNEAFFTSGFICISGLCLAVLSHIFCARYSMFAAKLLTHMMAASLGTQILFLASAYASPQLAEESCSAMAAVTHYLYLCQFSWMLIQSVNFWYVLVMNDEHTERRYLLFFLLSWGLPAFVVILLIVILKGIYHQSMSQIYGLIHGDLCFIPNVYAALFTAALVPLTCLVVVFVVFIHAYQVKPQWKAYDDVFRGRTNAAEIPLILYLFALISVTWLWGGLHMAYRHFWMLVLFVIFNSLQGLYVFMVYFILHNQMCCPMKASYTVEMNGHPGPSTAFFTPGSGMPPAGGEISKSTQNLIGAMEEVPPDWERASFQQGSQASPDLKPSPQNGATFPSSGGYGQGSLIADEESQEFDDLIFALKTGAGLSVSDNESGQGSQEGGTLTDSQIVELRRIPIADTHL
As for B1, the binding entry with Myc-tagged S1R is “binds”.
